Assay results taken from PubChem BioAssay AID1347426 (Functional Genomics Laboratory (NCATS/FGL), 2020).
The whole screen tested about 31,000 sequences, of which about 1,400 (4.5%) were called active.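 Rule for the calls: active = median seed-adjusted z-score above 1 or below -1; inactive = the rest.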 Some of the results follow.

Test: Novel Modifiers of Survival Motor Neuron (SMN) Protein: Gene Identification via Genome-wide siRNA Screen;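 note: luminescence tracks full-length SMN protein made from the SMN2 reporter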
Conditions: HEK293T SMN2-luciferase reporter, siRNA knockdown, 72 h; actives lie on both sides
How it was run: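 Luciferase signal, proportional to full-length SMN made from an SMN2 cDNA reporter in stable HEK293T cells, was read 72 h after siRNA reverse transfection. Values were expressed as MAD scores after non-targeting-control normalization and log10 conversion; seed analysis flagged off-targets.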
For CGCAGGUUCUACCAGAUGATT against HS3ST6, the median seed-adjusted z-score was inactive: 0.
In the case of GAACAUCGUGAACUACCUATT against ACTL8, the median seed-adjusted z-score is reported as inactive: 0.
With GAUGCUAUAUUUCCGCAUATT against TYK2 the median seed-adjusted z-score was inactive: -0.549.
For CGAAAGACCCUGACCUUCATT against BSPRY, the median seed-adjusted z-score was inactive: -0.399.
With GGGAGAACCAGGGAAAGGATT against COL13A1 the median seed-adjusted z-score was inactive: -0.112.
With AUCCCUACCUGAACCUACATT against RAVER1 the median seed-adjusted z-score was inactive: -0.0873.
In the case of AGAUCAAUGGAGUAGCAGATT against TRMT12, the median seed-adjusted z-score is reported as inactive: 0.352.
In the case of GCUUUGAUCUGGAGUCAUATT against ZMIZ1, the median seed-adjusted z-score is reported as inactive: -0.382.
In the case of GUGUCUUACUUUAUAGAAATT against ASCL1, the median seed-adjusted z-score is reported as inactive: 0.132.
For GAUCCACCUGAGACAGAAATT against EGR2, the median seed-adjusted z-score was inactive: -0.37.
With CGAUGGACCGAUAACAAGATT against EFCAB6 the median seed-adjusted z-score was inactive: 0.206.
With GCCUUUACGUGGUGUCUAATT against CPT1A the median seed-adjusted z-score was inactive: 0.129.
With GAACCGAUCUUAUAGGUUATT against DHX16 the median seed-adjusted z-score was inactive: 0.102.
In the case of GGGAAGAGGUAUAAACAAATT against ADCYAP1, the median seed-adjusted z-score is reported as inactive: 0.229.
In the case of GAUACCUCAUAAAUAGCUATT against B3GNT5, the median seed-adjusted z-score is reported as inactive: -0.452.
For GGAUGCACUUCUAAACUCATT against AKR1D1, the median seed-adjusted z-score was inactive: 0.211.
For GGUGUCUACUUGAGAAACATT against LSS, the median seed-adjusted z-score was inactive: -0.302.
With GUACCAAUAUGAACGGUAUTT against IRX6 the median seed-adjusted z-score was inactive: -0.0329.
In the case of CCUCGAUUCCAUUAUCAUUTT against RECQL4, the median seed-adjusted z-score is reported as inactive: 0.475.
For GGAUGGGUCCAUUAUAUGATT against CKS1B, the median seed-adjusted z-score was inactive: 0.00314.
For UCCAGUUUCUUUAUCCUAATT against ATP5F1, the median seed-adjusted z-score was inactive: -0.323.
With CCUACAAGCUGGGUGAGCATT against MFSD3 the median seed-adjusted z-score was inactive: -0.0706.
With GCACUACCUUCAUAGAAAUTT against PIGH the median seed-adjusted z-score was inactive: -0.327.
With CCAUCUACAUGAUCAACCUTT against GPR55 the median seed-adjusted z-score was inactive: -0.114.
For GUACAUUGACAGAAUUGAUTT against UBTF, the median seed-adjusted z-score was inactive: 0.942.
With CCUAAAUGGUAGCUCUAAATT against RANBP9 the median seed-adjusted z-score was inactive: -0.467.
With GACAGACAAUAAUCGCAUUTT against CCT3 the median seed-adjusted z-score was inactive: -0.416.
With AGAUGGUGACUAUAAGUCUTT against ALX3 the median seed-adjusted z-score was inactive: -0.0707.
For ACGCAGACAUGUUCUGGAATT against TRPM5, the median seed-adjusted z-score was inactive: -0.0565.
In the case of CGGAUUGUCUAUUGCAUCATT against CALCRL, the median seed-adjusted z-score is reported as inactive: 0.28.
In the case of GUUGAGAGCUCAAAACUAATT against ZFP42, the median seed-adjusted z-score is reported as inactive: -0.537.
For AAAGAAUCCGGUAUAAAAATT against PBX4, the median seed-adjusted z-score was inactive: -0.855.
With CAUGCUCGUGGGUAACAAATT against RAB25 the median seed-adjusted z-score was inactive: -0.04.
With CAGUGUUAGUCAUAUCGUATT against DHX36 the median seed-adjusted z-score was inactive: 0.165.
For AGAGCAAAACAGUCCGAUATT against PCDH8, the median seed-adjusted z-score was active: -1.03.
For CACCUGCGAGUGUUCCAAUTT against CSTB, the median seed-adjusted z-score was active: 1.08.
For GGAGUAAUAAAAUCAAGUUTT against GTF2I, the median seed-adjusted z-score was inactive: 0.379.
With GACUACUUACGGUUCAAGATT against VAMP7 the median seed-adjusted z-score was inactive: -0.00527.
In the case of CAAUGAACAUGACUAUGCATT against TTC35, the median seed-adjusted z-score is reported as inactive: -0.0898.
With GGAGCGAUGCCUUAGGAUATT against NSUN2 the median seed-adjusted z-score was inactive: -0.707.
For GAUCCUCAUGAAAAACGAATT against HOXC11, the median seed-adjusted z-score was inactive: -0.188.
With UCAUGUAUGUGGGAGCCAATT against SNCG the median seed-adjusted z-score was inactive: -0.169.
In the case of CAAUCACGCGGACCCAGAATT against PSMB4, the median seed-adjusted z-score is reported as inactive: -0.16.
In the case of AAGACAAGCUGGUGCGCAATT against ZBTB7B, the median seed-adjusted z-score is reported as inactive: -0.242.
For GGAAUUUGAGAACCCUGAATT against LMTK3, the median seed-adjusted z-score was inactive: 0.
For GCACCUUCGUCCUCAACUUTT against PROC, the median seed-adjusted z-score was inactive: -0.228.
For CAUGAUCGAUUUCCAAUUATT against DNAH8, the median seed-adjusted z-score was inactive: 0.
With GGAUAAAGACUAUCCGAGATT against MMP13 the median seed-adjusted z-score was inactive: 0.265.
For GGAUGGUUGUGAACAUUGATT against KRT32, the median seed-adjusted z-score was inactive: -0.000598.
With AACCCUUUGUGGAACACCATT against PSMB4 the median seed-adjusted z-score was inactive: -0.16.
In the case of GGACUUCUCUAUAUAGCUATT against ZMYND12, the median seed-adjusted z-score is reported as inactive: 0.0551.
For CAGUCUAUGAGCUUACAAATT against SMAD1, the median seed-adjusted z-score was inactive: -0.0282.
In the case of GCGUCAACCCUUUCUUGUATT against CCR7, the median seed-adjusted z-score is reported as inactive: 0.244.
In the case of CAUCAACACCUUCCACCAATT against S100A9, the median seed-adjusted z-score is reported as inactive: -0.0953.
For GCAGCUGUAUAAGUUACUATT against NFKB1, the median seed-adjusted z-score was inactive: 0.31.
In the case of GAGGAAUUCAUUAAUGAUATT against ASCC1, the median seed-adjusted z-score is reported as inactive: -0.00853.
In the case of AAUUCACCGUGAGCCUGAATT against CENTB1, the median seed-adjusted z-score is reported as inactive: -0.239.
In the case of AGCCCUCCCUAUACCCUUATT against ACCN3, the median seed-adjusted z-score is reported as inactive: -0.114.
For CAGCGGCUACAUAAACUCATT against COL17A1, the median seed-adjusted z-score was inactive: 0.252.
For GGGACGAAGUCACAAGUCATT against CLIP1, the median seed-adjusted z-score was inactive: 0.853.
For GGGAUUACUCCUUCAAUGATT against GRIN2D, the median seed-adjusted z-score was inactive: -0.135.
In the case of GAACAUAAGCGACCGCUUUTT against SLC7A7, the median seed-adjusted z-score is reported as inactive: 0.209.
With GCACUUACACUCUGUUUAATT against FGF13 the median seed-adjusted z-score was inactive: 0.875.
In the case of AAGUCUUAUUGCUUGUACATT against BZRPL1, the median seed-adjusted z-score is reported as inactive: 0.0787.
In the case of CUUGCAAUGUCGAAGCUUATT against CDH8, the median seed-adjusted z-score is reported as inactive: 0.169.
With ACAGAAUAAUGUACAAGAATT against POLR2K the median seed-adjusted z-score was active: -3.72.
For GAAUCGAAAAAGAAGUGAATT against GIPC2, the median seed-adjusted z-score was inactive: -0.0367.
With GGAAAGAGUUCAGUCGGAATT against ZNF671 the median seed-adjusted z-score was inactive: -0.0551.
For GCCUUUAAGCACUAAUGAATT against CST8, the median seed-adjusted z-score was inactive: -0.0126.
With GGAAGGCAAUCAGUGGGUATT against VRK2 the median seed-adjusted z-score was inactive: -0.183.
For GCUUGGAUGUGAAUCAGGATT against S100A13, the median seed-adjusted z-score was inactive: 0.153.
In the case of GAGGAGUUCUCAGAAAUCATT against SLC16A2, the median seed-adjusted z-score is reported as inactive: -0.302.
In the case of CCAAGGAACCUGACAACCATT against GGT1, the median seed-adjusted z-score is reported as inactive: -0.0421.
For CGACAUUGAUUAUAGCUUATT against LBP, the median seed-adjusted z-score was inactive: -0.207.
With GGAUCUCACAGGUUCCGUUTT against LARS2 the median seed-adjusted z-score was inactive: 0.25.
For GGCCCAUCACCAUAUCUGATT against RNF216, the median seed-adjusted z-score was inactive: -0.246.
With GGAACUUACUACAACUCCATT against TMPRSS6 the median seed-adjusted z-score was active: 1.29.
With GGACAUGAACCUUAACGAATT against DIAPH2 the median seed-adjusted z-score was inactive: -0.0149.
With GGAUGUGGGUAAAUCCCAATT against FOXR1 the median seed-adjusted z-score was inactive: -0.153.
For GCACUGAACCUUUGAUCUCTT against KRTAP23-1, the median seed-adjusted z-score was inactive: 0.647.
In the case of GUAAAAUGGUUCAAUGUAATT against YBX1, the median seed-adjusted z-score is reported as inactive: -0.0115.
For CCACGAAAGGGAAUCUUAATT against SALL1, the median seed-adjusted z-score was inactive: -0.526.
In the case of GCCUGUGAAGUUUACCAUATT against TMEM87B, the median seed-adjusted z-score is reported as inactive: -0.51.
With GCAUCAACUUUCCCGGUCATT against LTBP3 the median seed-adjusted z-score was inactive: -0.0236.
In the case of CCAACAUCGAGUCCCUCAATT against SLC29A3, the median seed-adjusted z-score is reported as inactive: -0.0626.
With CAGACAGAGUCAAGCGGAATT against DIO1 the median seed-adjusted z-score was inactive: 0.0467.
In the case of CUCUCAGUAUGACAAGGAATT against SPOCK3, the median seed-adjusted z-score is reported as inactive: 0.329.
In the case of GCGAGGCUCCUGUUUAAUATT against DCTD, the median seed-adjusted z-score is reported as inactive: 0.
For GGUUUCAUCCUGGUUUAUATT against RAP2C, the median seed-adjusted z-score was inactive: 0.443.
In the case of GCACAACAGUUGGAUCAAATT against MARK1, the median seed-adjusted z-score is reported as inactive: 0.341.
For AGUACGCUUUGAAAACCAUTT against HMX2, the median seed-adjusted z-score was inactive: -0.547.
For CUGGGUGCCUGAUACCUAUTT against GABRB2, the median seed-adjusted z-score was inactive: 0.288.
With AGAAGGGACUGGACCCAUATT against COX5B the median seed-adjusted z-score was inactive: 0.45.
For GAGUAUAUCCUGUACAACATT against CTSH, the median seed-adjusted z-score was inactive: -0.81.
In the case of GGUCAUUGCUACGACAUCATT against UGCGL1, the median seed-adjusted z-score is reported as inactive: -0.391.
For CAGAUUACGUUUAUAAGAATT against ZNF274, the median seed-adjusted z-score was inactive: 0.452.
In the case of CAAUUUCGAUCAGACUACATT against GNAL, the median seed-adjusted z-score is reported as inactive: -0.178.
With GCUAUUAUCUAAGCACGAATT against ADAMTS20 the median seed-adjusted z-score was active: 1.44.
In the case of CCAACAAUCCCUACGACUATT against MYH6, the median seed-adjusted z-score is reported as inactive: 0.
For GCACAGCAACGCAACCUCATT against HIC1, the median seed-adjusted z-score was inactive: 0.523.
With GAUCAGGUGCUGUUCCAUATT against DGAT2L3 the median seed-adjusted z-score was inactive: 0.247.
In the case of CUCCCUUAAUGAGCAAGGATT against GNB3, the median seed-adjusted z-score is reported as inactive: -0.373.
With GGGUGUAAGAGAACAUGAATT against PHOSPHO2 the median seed-adjusted z-score was inactive: -0.247.
For CCAGUAAACAUAUCCGUCATT against KRT84, the median seed-adjusted z-score was inactive: -0.645.
With CUAAGGAACUUUUACUUCATT against IFNB1 the median seed-adjusted z-score was inactive: 0.
For CAUACUCAUUCUUGCAAUATT against PHOSPHO2, the median seed-adjusted z-score was inactive: -0.247.
In the case of GAGUCAGAUUAGUCAAUGUTT against FSD1L, the median seed-adjusted z-score is reported as inactive: 0.166.
